Assay results published in patent publication US11629165B2, “Molecules for targeting ribosomes and ribosome-interacting proteins, and uses thereof” (Immagina Biotechnology S.r.l., priority 2018, dated 2023).

Tested on: cellular proteins of HEK-293 and MCF7 cell lines
Assay: 3Px probe protein labelling, UV irradiation, anti-puromycin immunoblot
Assay type: cell-based
Settings: MCF7, different concentrations, 10 min
Method: For our initial analysis, we treated HEK-293 and MCF7 cell lines in complete culture medium with the 3PB probe (10 μM) for 10 min, followed by irradiation for 5 min on ice (total power: 0.75 J/cm2). We first assessed 3PB labeling of cellular proteins using SDS-PAGE analysis. […] Then, we compared the labelling activity of 3PB, 3PA and 3PBis in HEK293 and MCF7 cells, adding the probes before or after cell lysis. In the latter case, each probe is incubated for 1 h in the cytoplasmic cell extract at 4° C., followed by UV irradiation (0.75 J/cm^2) of the treated lysate. […] Therefore, both 3PB and 3PBis show additional bands with MW=˜50 kDa, when reacted in the cell lysate, with respect to the situation when probes are incubated with growing cells (FIG. 6a). […] This is presumably due to the higher hydrophobicity of the 3PBis probe and a consequent better cell membrane penetration (FIG. 7).
To test 3PN and 3PO activity, we treated MCF7 cells with different concentrations of the two drugs for 10 min, followed by UV-356 irradiation.
Reaction in cell culture: MCF7 or HEK-293 cells were grown to 80% of confluence and treated with CHX (10 μg/mL, 5 min, 37° C.) and then with the probe (10 min, 37 C). […]

Compound | MW of main puromycin-tag band
C#CCOc1cc(C2(C(F)(F)F)N=N2)ccc1C(=O)N[C@@H](Cc1ccc(OC)cc1)C(=O)N[C@H]1[C@@H](O)[C@H](n2cnc3c(N(C)C)ncnc32)O[C@@H]1CO [3PN] | about 65 kDa
COc1ccc(CC(NC(=O)C(CCN=[N+]=N)NC(=O)CCC2(C)N=N2)C(=O)NC2C(CO)OC(n3cnc4c(N(C)C)ncnc43)C2O)cc1 (centres unmarked) [3PO] | about 65 kDa
